We go through seven molecules from article doi:10.1101/2023.12.10.570918.

Chains of the proteins cited; added tags and fusions are not shown. Lines headed by an entry give the natural chain unless they say otherwise; changes in a name come on top.
UniProt P68400: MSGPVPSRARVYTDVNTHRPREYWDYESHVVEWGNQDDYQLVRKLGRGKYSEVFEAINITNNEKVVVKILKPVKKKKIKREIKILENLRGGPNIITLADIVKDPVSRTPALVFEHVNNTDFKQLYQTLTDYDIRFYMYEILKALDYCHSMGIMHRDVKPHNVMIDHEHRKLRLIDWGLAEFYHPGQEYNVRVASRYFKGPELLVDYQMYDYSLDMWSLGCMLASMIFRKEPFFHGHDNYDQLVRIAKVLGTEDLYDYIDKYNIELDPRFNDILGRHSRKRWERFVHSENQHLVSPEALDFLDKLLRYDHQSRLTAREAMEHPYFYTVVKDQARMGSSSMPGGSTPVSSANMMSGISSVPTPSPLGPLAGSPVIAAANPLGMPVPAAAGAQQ
UniProt Q92551: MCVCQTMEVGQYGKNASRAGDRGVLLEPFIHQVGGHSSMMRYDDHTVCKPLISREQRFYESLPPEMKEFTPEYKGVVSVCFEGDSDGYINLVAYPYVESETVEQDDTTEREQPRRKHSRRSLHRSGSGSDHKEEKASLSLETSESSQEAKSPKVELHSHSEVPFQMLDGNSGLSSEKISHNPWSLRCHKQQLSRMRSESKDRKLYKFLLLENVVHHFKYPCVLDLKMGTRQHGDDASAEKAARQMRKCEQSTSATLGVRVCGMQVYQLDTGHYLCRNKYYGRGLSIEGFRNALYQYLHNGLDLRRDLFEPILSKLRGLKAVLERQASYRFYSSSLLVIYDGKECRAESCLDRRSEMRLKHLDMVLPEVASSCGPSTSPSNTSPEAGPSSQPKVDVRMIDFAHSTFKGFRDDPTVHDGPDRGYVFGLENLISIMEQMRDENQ
UniProt P01108: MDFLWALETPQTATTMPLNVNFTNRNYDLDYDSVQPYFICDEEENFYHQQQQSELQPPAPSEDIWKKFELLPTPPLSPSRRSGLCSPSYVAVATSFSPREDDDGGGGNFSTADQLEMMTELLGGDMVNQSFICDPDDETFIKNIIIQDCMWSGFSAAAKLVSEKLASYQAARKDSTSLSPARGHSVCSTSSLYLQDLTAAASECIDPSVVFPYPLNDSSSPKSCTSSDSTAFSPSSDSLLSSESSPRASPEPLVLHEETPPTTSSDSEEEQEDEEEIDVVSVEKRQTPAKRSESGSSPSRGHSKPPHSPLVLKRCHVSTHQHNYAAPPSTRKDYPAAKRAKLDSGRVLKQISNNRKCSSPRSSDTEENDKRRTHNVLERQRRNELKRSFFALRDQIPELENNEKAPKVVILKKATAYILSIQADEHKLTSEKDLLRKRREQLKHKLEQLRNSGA

The target in assay [1] is T1, myc-tagged AP3B1 (human) (UniProt O00203).
T1 sequence: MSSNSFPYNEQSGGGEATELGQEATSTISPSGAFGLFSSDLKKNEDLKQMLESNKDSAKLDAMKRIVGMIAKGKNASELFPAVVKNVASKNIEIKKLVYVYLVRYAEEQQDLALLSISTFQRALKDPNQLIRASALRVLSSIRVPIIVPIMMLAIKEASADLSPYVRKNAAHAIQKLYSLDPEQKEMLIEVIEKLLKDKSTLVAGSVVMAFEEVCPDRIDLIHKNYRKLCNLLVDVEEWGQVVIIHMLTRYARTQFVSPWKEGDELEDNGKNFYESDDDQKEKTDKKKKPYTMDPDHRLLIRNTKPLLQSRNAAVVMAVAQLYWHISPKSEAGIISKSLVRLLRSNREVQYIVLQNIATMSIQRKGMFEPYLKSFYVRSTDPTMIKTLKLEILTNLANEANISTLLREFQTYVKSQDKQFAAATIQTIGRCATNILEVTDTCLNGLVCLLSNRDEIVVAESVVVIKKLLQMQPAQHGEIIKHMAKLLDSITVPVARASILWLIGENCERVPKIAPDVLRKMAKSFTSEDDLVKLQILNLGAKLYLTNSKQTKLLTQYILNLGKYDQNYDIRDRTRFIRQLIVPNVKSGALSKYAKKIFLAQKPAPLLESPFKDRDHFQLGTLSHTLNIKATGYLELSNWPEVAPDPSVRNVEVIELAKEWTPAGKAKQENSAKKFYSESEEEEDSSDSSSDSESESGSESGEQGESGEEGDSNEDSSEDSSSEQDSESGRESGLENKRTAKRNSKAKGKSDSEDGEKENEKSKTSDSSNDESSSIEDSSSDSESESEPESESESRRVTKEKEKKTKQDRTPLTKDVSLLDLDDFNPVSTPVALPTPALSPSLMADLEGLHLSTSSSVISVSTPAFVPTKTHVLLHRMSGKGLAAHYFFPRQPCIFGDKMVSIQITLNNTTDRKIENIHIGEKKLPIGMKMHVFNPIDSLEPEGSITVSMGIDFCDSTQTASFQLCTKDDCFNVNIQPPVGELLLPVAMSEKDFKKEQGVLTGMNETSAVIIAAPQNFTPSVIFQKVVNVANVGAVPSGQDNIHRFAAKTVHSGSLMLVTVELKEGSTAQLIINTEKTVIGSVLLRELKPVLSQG
The assay is described as follows: co-IP.

In assay [2] the target is HA-tagged CK2α (human) (UniProt P68400). Put plainly: co-IP.
In assay [3] the target is GST-tagged CK2α (human) (UniProt P68400). The assay is described as follows: pull-down.
The target of assay [4] is SFB-tagged IP6K1 (human) (UniProt Q92551). The assay is described as follows: pull-down.
In assay [5] the target is V5-tagged IP6K1 (human) (UniProt Q92551). The assay is described as follows: co-IP.
The target in assay [6] is GST-tagged IP6K1 (human) (UniProt Q92551). Put plainly: pull-down.
Assay [7] addresses endogenous IP6K1 (human (endogenous in HEK293T)) (UniProt Q92551). Put plainly: co-IP.

These are yes or no findings as the source states them, for the method shown. Binding seen in cells or lysates may run through a third protein. Some results given as binding are weak or reduced against the parent protein; the word gives no strength. For some assays here: Sequences can lack the tags named with a protein.

Consider “endogenous IP6K1 (from UniProt Q92551 1-441) (enzyme)”, for which the binding result in assay [1] is “binds”; in assay [2], “no binding”. With “V5-tagged IP6K1 (from UniProt Q92551-1 1-441) (enzyme)”, the binding entry in assay [3] is “no binding”.

On to “V5-tagged mouse MYC (from UniProt P01108 1-454)”, for which the binding entry in assay [4] is reported as “binds”.

B1: myc-tagged AP3B1 (protein, UniProt O00203-1 1-1094)
chain: T1 sequence
As for B1, the binding entry in assay [5], in assay [3] and in assay [6] was “binds” throughout.

B2: endogenous AP3B1 (protein, UniProt O00203 1-1094)
chain: T1 sequence
For the molecule B2, the binding entry in assay [7] and in assay [4] was “binds” in each case.

B3: myc-tagged NOLC1 (protein, UniProt Q14978-2 1-709)
chain: MADAGIRRVVPSDLYPLVLGFLRDNQLSEVANKFAKATGATQQDANASSLLDIYSFWLKSAKVPERKLQANGPVAKKAKKKASSSDSEDSSEEEEEVQGPPAKKAAVPAKRVGLPPGKAAAKASESSSSEESSDDDDEEDQKKQPVQKGVKPQAKAAKAPPKKAKSSDSDSDSSSEDEPPKNQKPKITPVTVKAQTKAPPKPARAAPKIANGKAASSSSSSSSSSSSDDSEEEKAAATPKKVWTITSVRAETVPKKQVVAKAPVKAATTPTRKSSSSEDSSSDEEEEQKKPMKNKPGPYSSVPPPSAPPPKKSLGTQPPKKAVEKQQPVESSEDSSDESDSSSEEEKKPPTKAVVSKATTKPPPAKKAAESSSDSSDSDSSEDDEAPSKPAGTTKNSSNKPAVTTKSPAVKPAAAPKQPVGGGQKLLTRKADSSSSEEESSSSEEEKTKKMVATTKPKATAKAALSLPAKQAPQGSRDSSSDSDSSSSEEEEEKTSKSAVKKKPQKVAGGAAPSKPASAKKGKAESSNSSSSDDSSEEEEEKLKGKGSPRPQAPKANGTSALTAQNGKAAKNSEEEEEEKKKAAVVVSKSGSLKKRKQNEAAKEAETPQAKKIKLQTPNTFPKRKKGEKRASSPFRRVREEEIEVDSRVADNSFDAKRGAAGDWGERANQVLKFTKGKSFRHEKTKKKRGSYRGGSISVQVNSIKFDSE
In the case of B3, the binding result in assay [5] was “binds”.

B4: endogenous TCOF (protein, UniProt Q13428 1-1488)
chain: MAEARKRRELLPLIYHHLLRAGYVRAAREVKEQSGQKCFLAQPVTLLDIYTHWQQTSELGRKRKAEEDAALQAKKTRVSDPISTSESSEEEEEAEAETAKATPRLASTNSSVLGADLPSSMKEKAKAETEKAGKTGNSMPHPATGKTVANLLSGKSPRKSAEPSANTTLVSETEEEGSVPAFGAAAKPGMVSAGQADSSSEDTSSSSDETDVEGKPSVKPAQVKASSVSTKESPARKAAPAPGKVGDVTPQVKGGALPPAKRAKKPEEESESSEEGSESEEEAPAGTRSQVKASEKILQVRAASAPAKGTPGKGATPAPPGKAGAVASQTKAGKPEEDSESSSEESSDSEEETPAAKALLQAKASGKTSQVGAASAPAKESPRKGAAPAPPGKTGPAVAKAQAGKREEDSQSSSEESDSEEEAPAQAKPSGKAPQVRAASAPAKESPRKGAAPAPPRKTGPAAAQVQVGKQEEDSRSSSEESDSDREALAAMNAAQVKPLGKSPQVKPASTMGMGPLGKGAGPVPPGKVGPATPSAQVGKWEEDSESSSEESSDSSDGEVPTAVAPAQEKSLGNILQAKPTSSPAKGPPQKAGPVAVQVKAEKPMDNSESSEESSDSADSEEAPAAMTAAQAKPALKIPQTKACPKKTNTTASAKVAPVRVGTQAPRKAGTATSPAGSSPAVAGGTQRPAEDSSSSEESDSEEEKTGLAVTVGQAKSVGKGLQVKAASVPVKGSLGQGTAPVLPGKTGPTVTQVKAEKQEDSESSEEESDSEEAAASPAQVKTSVKKTQAKANPAAARAPSAKGTISAPGKVVTAAAQAKQRSPSKVKPPVRNPQNSTVLARGPASVPSVGKAVATAAQAQTGPEEDSGSSEEESDSEEEAETLAQVKPSGKTHQIRAALAPAKESPRKGAAPTPPGKTGPSAAQAGKQDDSGSSSEESDSDGEAPAAVTSAQVIKPPLIFVDPNRSPAGPAATPAQAQAASTPRKARASESTARSSSSESEDEDVIPATQCLTPGIRTNVVTMPTAHPRIAPKASMAGASSSKESSRISDGKKQEGPATQVSKKNPASLPLTQAALKVLAQKASEAQPPVARTQPSSGVDSAVGTLPATSPQSTSVQAKGTNKLRKPKLPEVQQATKAPESSDDSEDSSDSSSGSEEDGEGPQGAKSAHTLGPTPSRTETLVEETAAESSEDDVVAPSQSLLSGYMTPGLTPANSQASKATPKLDSSPSVSSTLAAKDDPDGKQEAKPQQAAGMLSPKTGGKEAASGTTPQKSRKPKKGAGNPQASTLALQSNITQCLLGQPWPLNEAQVQASVVKVLTELLEQERKKVVDTTKESSRKGWESRKRKLSGDQPAARTPRSKKKKKLGAGEGGEASVSPEKTSTTSKGKAKRDKASGDVKEKKGKGSLGSQGAKDEPEEELQKGMGTVEGGDQSNPKSKKEKKKSDKRKKDKEKKEKKKKAKKASTKDSESPSQKKKKKKKKTAEQTV
As for B4, the binding result in assay [4] was “binds”.
